Test results published in doi:10.1101/2023.08.10.552743.
Results are given in words; binding and its absence hold for the method and conditions named. For part of these data: In cells and extracts the contact can be indirect. Some results given as binding are weak or reduced against the parent protein; the word gives no strength. Where a sequence is shown, tags or fusion partners need not be part of it.

The chains behind the UniProt entries cited, without tags or fusion partners.
UniProt Q9NV88, whole entry: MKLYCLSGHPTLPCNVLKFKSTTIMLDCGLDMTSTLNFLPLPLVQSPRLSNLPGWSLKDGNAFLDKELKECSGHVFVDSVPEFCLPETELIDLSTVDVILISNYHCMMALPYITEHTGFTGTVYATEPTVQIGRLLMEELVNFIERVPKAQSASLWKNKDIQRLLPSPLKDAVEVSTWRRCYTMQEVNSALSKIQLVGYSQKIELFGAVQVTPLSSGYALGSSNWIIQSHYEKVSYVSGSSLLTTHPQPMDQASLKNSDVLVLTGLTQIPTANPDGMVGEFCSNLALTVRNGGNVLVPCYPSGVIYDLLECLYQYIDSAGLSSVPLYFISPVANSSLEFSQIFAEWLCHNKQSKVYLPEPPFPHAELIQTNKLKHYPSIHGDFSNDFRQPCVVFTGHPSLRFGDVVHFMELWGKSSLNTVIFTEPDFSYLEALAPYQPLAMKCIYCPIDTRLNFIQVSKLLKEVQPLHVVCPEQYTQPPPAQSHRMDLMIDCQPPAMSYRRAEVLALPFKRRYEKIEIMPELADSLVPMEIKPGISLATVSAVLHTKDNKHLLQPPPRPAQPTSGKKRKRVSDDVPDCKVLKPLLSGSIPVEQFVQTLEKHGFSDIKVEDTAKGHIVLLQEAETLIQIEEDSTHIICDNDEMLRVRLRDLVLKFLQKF
UniProt Q5TA45, whole entry: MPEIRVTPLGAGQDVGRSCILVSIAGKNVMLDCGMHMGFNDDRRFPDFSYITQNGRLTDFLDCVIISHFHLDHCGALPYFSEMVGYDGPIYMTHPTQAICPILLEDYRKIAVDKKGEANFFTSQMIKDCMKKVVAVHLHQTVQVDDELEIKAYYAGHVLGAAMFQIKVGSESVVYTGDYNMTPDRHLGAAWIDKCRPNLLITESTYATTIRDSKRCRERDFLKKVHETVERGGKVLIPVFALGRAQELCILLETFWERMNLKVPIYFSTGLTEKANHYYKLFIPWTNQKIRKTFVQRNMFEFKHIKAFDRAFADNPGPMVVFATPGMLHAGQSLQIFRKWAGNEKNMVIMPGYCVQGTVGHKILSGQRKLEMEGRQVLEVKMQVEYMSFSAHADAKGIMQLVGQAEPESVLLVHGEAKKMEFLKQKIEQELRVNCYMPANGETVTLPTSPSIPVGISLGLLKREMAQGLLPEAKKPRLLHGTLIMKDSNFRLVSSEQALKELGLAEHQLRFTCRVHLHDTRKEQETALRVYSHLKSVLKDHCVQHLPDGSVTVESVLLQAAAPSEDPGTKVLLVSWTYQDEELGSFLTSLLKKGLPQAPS

Legend:
[1] = molecular target: T1, Flag-BRAT1 wild type (human) (UniProt Q6PJG6); assay: SEC
T1 sequence: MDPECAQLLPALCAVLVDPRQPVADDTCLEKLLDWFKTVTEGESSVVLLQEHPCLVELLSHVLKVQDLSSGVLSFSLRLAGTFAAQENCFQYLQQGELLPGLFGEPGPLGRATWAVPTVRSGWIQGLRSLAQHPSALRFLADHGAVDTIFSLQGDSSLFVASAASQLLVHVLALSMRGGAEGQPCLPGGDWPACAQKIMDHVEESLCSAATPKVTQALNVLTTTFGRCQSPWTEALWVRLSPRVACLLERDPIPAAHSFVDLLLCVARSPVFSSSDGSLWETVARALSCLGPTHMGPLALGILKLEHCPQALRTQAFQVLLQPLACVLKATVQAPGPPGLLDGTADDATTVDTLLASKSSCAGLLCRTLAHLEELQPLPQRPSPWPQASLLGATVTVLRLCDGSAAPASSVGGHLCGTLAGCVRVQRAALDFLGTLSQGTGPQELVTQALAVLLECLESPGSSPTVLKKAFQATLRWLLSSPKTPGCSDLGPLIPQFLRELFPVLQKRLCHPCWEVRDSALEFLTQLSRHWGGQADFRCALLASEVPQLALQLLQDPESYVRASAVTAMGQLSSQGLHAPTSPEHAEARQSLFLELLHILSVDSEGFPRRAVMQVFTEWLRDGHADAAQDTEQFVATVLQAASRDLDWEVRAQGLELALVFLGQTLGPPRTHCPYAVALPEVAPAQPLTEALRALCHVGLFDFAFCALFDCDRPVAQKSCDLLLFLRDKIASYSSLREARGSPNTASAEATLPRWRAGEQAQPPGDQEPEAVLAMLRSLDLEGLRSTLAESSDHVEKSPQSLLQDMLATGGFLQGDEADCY

[2] = molecular target: T1, Flag-BRAT1 wild type (human); assay: co-IP
[3] = molecular target: T1, Flag-BRAT1 wild type (human); assay: co-IP; remark: listed apart in the source

| binding [1] | binding [2] | binding [3] | Substance |
| --- | --- | --- | --- |
| binds | binds | binds | INTS9 (endogenous, HEK293T) (from UniProt Q9NV88 1-658) |
| binds | binds | binds | INTS11 (endogenous, HEK293T) (from UniProt Q5TA45 1-600) |
